Test results from paper doi:10.1101/233213.
Residue numbers refer to the chain shown, from its start. No constants are given. Whether binding was seen depends on the method and setting. In cells and extracts the contact can be indirect. Some entries that bind do so weakly or less than the wild type. Sequences can lack the tags named with a protein.

Target: T1, FLAG-tagged p80-LNX1 (Ligand of Numb protein X1, isoform p80) (UniProt O70263)
T1 sequence: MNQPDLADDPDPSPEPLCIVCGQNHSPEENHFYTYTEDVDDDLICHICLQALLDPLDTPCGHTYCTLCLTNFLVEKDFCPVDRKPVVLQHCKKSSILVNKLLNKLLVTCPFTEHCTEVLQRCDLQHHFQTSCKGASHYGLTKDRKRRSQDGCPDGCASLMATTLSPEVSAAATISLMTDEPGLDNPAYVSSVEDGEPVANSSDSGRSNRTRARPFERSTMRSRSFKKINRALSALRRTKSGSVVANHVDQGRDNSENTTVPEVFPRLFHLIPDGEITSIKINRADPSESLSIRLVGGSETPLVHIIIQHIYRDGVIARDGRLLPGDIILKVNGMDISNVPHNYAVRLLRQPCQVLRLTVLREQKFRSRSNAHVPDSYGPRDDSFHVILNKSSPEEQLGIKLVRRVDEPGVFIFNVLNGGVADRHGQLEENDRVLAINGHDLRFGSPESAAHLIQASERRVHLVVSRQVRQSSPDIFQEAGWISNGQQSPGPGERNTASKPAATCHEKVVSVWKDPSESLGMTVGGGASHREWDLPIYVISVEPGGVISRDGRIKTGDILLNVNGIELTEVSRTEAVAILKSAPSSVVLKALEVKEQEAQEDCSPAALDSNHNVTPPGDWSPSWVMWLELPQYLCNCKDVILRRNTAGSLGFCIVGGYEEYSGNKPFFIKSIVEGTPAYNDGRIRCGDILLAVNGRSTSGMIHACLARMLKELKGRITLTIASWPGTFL
Assay: co-IP

B1: GlyT2-4KR (protein, UniProt P58295 1-799)
chain: MDCSAPKEMNKPPTNILEATVPGHRDSPRAPRTSPEQDLPAAAPAAAVQPPRVPRSASTGAQTFQSADARACEAQRPGVGFCKLSSPQAQATSAALRDLSEGHSAQANPPSGAAGAGNALHCKIPALRGPEEDENVSVGKGTLEHNNTPAVGWVNMSQSTVVLGTDGIASVLPGSVATTTIPEDEQGDENKARGNWSSKLDFILSMVGYAVGLGNVWRFPYLAFQNGGGAFLIPYLMMLALAGLPIFFLEVSLGQFASQGPVSVWKAIPALQGCGIAMLIISVLIAIYYNVIICYTLFYLFASFVSVLPWGSCNNPWNTPECKDKTKLLLDSCVIGDHPKIQIKNSTFCMTAYPNLTMVNFTSQANKTFVSGSEEYFKYFVLKISAGIEYPGEIRWPLAFCLFLAWVIVYASLAKGIKTSGKVVYFTATFPYVVLVILLIRGVTLPGAGAGIWYFITPKWEKLTDATVWKDAATQIFFSLSAAWGGLITLSSYNKFHNNCYRDTLIVTCTNSATSIFAGFVIFSVIGFMANERKVNIENVADQGPGIAFVVYPEALTRLPLSPFWAIIFFLMLLTLGLDTMFATIETIVTSISDEFPKYLRTHKPVFTLGCCICFFIMGFPMITQGGIYMFQLVDTYAASYALVIIAIFELVGISYVYGLQRFCEDIEMMIGFQPNIFWKVCWAFVTPTILTFILCFSFYQWEPMTYGSYRYPNWSMVLGWLMLACSVIWIPIMFVIKMYLAPGRFIERLRLVCSPQPDWGPFLAQHRGERYRNMIDPLGTSSLGLRLPVRDLELGTQC
binding: binds

B2: GlyT2 (neuronal glycine transporter 2), wild type (protein, UniProt P58295 1-799)
chain: B1 chain with R751K, R773K, R787K, R791K
binding: binds

B3: GlyT2-Δ8cter (domain or fragment, UniProt P58295 1-791)
chain: MDCSAPKEMNKPPTNILEATVPGHRDSPRAPRTSPEQDLPAAAPAAAVQPPRVPRSASTGAQTFQSADARACEAQRPGVGFCKLSSPQAQATSAALRDLSEGHSAQANPPSGAAGAGNALHCKIPALRGPEEDENVSVGKGTLEHNNTPAVGWVNMSQSTVVLGTDGIASVLPGSVATTTIPEDEQGDENKARGNWSSKLDFILSMVGYAVGLGNVWRFPYLAFQNGGGAFLIPYLMMLALAGLPIFFLEVSLGQFASQGPVSVWKAIPALQGCGIAMLIISVLIAIYYNVIICYTLFYLFASFVSVLPWGSCNNPWNTPECKDKTKLLLDSCVIGDHPKIQIKNSTFCMTAYPNLTMVNFTSQANKTFVSGSEEYFKYFVLKISAGIEYPGEIRWPLAFCLFLAWVIVYASLAKGIKTSGKVVYFTATFPYVVLVILLIRGVTLPGAGAGIWYFITPKWEKLTDATVWKDAATQIFFSLSAAWGGLITLSSYNKFHNNCYRDTLIVTCTNSATSIFAGFVIFSVIGFMANERKVNIENVADQGPGIAFVVYPEALTRLPLSPFWAIIFFLMLLTLGLDTMFATIETIVTSISDEFPKYLRTHKPVFTLGCCICFFIMGFPMITQGGIYMFQLVDTYAASYALVIIAIFELVGISYVYGLQRFCEDIEMMIGFQPNIFWKVCWAFVTPTILTFILCFSFYQWEPMTYGSYRYPNWSMVLGWLMLACSVIWIPIMFVIKMYLAPGRFIERLKLVCSPQPDWGPFLAQHRGERYKNMIDPLGTSSLGLKLPVK
binding: binds
